For test [1], the target named is T1, ERECTA-HA-TbID fusion protein (Arabidopsis thaliana) (UniProt Q42371).
T1 sequence: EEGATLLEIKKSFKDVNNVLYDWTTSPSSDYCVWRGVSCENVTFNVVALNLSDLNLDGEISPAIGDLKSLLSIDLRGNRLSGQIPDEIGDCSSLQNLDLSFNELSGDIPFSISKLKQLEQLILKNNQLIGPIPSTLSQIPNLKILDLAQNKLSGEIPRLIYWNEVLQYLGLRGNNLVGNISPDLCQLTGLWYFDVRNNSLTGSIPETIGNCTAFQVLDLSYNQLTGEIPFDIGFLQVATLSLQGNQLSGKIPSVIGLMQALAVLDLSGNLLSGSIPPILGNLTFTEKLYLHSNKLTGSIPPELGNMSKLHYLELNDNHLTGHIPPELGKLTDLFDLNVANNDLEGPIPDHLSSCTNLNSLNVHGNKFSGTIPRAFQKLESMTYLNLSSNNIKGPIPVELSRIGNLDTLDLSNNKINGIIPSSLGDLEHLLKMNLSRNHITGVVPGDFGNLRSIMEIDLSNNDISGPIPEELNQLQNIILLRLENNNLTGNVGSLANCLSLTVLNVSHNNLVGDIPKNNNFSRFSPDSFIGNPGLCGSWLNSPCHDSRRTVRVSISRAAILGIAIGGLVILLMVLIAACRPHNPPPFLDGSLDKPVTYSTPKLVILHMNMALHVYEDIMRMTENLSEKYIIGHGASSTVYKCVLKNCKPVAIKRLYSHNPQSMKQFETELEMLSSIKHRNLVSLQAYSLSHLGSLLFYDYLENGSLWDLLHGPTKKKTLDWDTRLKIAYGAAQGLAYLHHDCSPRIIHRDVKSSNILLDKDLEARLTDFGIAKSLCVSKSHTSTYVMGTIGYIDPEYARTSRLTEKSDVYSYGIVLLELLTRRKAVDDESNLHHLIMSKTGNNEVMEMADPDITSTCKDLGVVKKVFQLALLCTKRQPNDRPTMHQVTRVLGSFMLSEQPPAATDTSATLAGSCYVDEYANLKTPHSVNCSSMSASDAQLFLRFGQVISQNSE
The experiment in a line: proximity labelling; ERECTA membrane TbID-PL: microsomal fractionation, microsomal versus cytosolic fractions.

By UniProt entry, the sequences of proteins in these tests, tags left out. Residues count along the entry.
UniProt Q9LX66, residues 25-830: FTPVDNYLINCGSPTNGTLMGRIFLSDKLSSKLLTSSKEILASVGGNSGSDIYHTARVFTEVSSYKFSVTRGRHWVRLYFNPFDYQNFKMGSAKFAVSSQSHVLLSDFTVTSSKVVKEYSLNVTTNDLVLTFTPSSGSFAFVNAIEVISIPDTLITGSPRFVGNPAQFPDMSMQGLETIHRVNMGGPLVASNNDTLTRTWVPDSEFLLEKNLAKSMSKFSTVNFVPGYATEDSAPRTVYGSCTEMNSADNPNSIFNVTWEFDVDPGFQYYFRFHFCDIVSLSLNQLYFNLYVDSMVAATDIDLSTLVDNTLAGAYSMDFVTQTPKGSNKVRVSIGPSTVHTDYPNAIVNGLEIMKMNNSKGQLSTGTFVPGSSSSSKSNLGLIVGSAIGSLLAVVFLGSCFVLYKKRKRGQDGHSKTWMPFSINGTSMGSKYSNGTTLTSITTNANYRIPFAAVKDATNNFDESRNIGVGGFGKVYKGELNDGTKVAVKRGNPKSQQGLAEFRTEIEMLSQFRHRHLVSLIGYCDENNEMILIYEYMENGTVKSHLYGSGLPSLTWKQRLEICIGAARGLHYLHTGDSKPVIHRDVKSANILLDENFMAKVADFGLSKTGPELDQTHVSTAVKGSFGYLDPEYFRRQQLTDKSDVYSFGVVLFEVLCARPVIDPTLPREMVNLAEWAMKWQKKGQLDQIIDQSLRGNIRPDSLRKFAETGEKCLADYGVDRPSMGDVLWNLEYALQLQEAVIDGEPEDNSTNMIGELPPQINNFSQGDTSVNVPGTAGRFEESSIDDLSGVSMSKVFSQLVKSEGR

For test [2], the target named is T1, ERECTA-HA-TbID fusion protein (Arabidopsis thaliana). Description: proximity labelling; TbID-PL: ERECTA-HA-TbID seedlings, 50 μM biotin 1 hour at room temperature; biotinylated proteins on streptavidin magnetic beads, LC-MS; ERECTA-HA-TbID vs er-105.
For test [3] the target is unchanged. The experiment in a line: proximity labelling; optimized TbID-PL: ERECTA-HA-TbID seedlings with biotin (1 hour) compared to mock treated control (without biotin, 1 hour).
The target is the same in test [4]. Described as above. This is another data set of the same source.
Test [5] shares this target. The experiment in a line: proximity labelling; TbID-PL: ERECTA-HA-TbID seedlings, 50 μM biotin 1 hour at room temperature; biotinylated proteins on streptavidin magnetic beads, LC-MS; ERECTA-HA-TbID vs er-105. The source holds these as a separate data set.
For test [6] the target is unchanged. The experiment in a line: affinity purification with mass spectrometry; ET-AP: extract of 5-day-old ERECTApro::ERECTA-HA-TbID er-105 seedlings on anti-HA magnetic beads, 4°C 18 hours, lysis buffer with 150 mM NaCl and 1% Triton X-100; enrichment against control; three biological replicates.

Results are given in words; binding and its absence hold for the method and conditions named. In cells and extracts the contact can be indirect. A yes stands for co-enrichment or nearness to the bait. Other partners may have been found. Sequences can lack the tags named with a protein.

“BRASSINOSTEROID-… KINASE 1 (BSK1) (from UniProt Q944A7 1-512) (enzyme)”: the binding result in test [1] is on record as “binds”.
Turning to “HERK1 (from UniProt Q9LX66 25-830) (receptor)”, the binding entry in test [1], in test [2] and in test [3] was “binds” in each case.
Take LIK1 (receptor): the binding result in test [1], in test [2] and in test [3] was “binds” each time.
PICALM3 (endogenous): in test [2], the binding result is “binds”.
PICALM4A (endogenous): the binding result in test [1], in test [2] and in test [3] was “binds” throughout.
Turning to PICALM4B (endogenous), the binding result in test [1], in test [2] and in test [3] was “binds” throughout.

B1: YODA (MAPKKK4) (enzyme, UniProt Q9CAD5 1-883)
chain: MPWWSKSKDEKKKTNKESIIDAFNRKLGFASEDRSSGRSRKSRRRRDEIVSERGAISRLPSRSPSPSTRVSRCQSFAERSPAVPLPRPIVRPHVTSTDSGMNGSQRPGLDANLKPSWLPLPKPHGATSIPDNTGAEPDFATASVSSGSSVGDIPSDSLLSPLASDCENGNRTPVNISSRDQSMHSNKNSAEMFKPVPNKNRILSASPRRRPLGTHVKNLQIPQRDLVLCSAPDSLLSSPSRSPMRSFIPDQVSNHGLLISKPYSDVSLLGSGQCSSPGSGYNSGNNSIGGDMATQLFWPQSRCSPECSPVPSPRMTSPGPSSRIQSGAVTPLHPRAGGSTTGSPTRRLDDNRQQSHRLPLPPLLISNTCPFSPTYSAATSPSVPRSPARAEATVSPGSRWKKGRLLGMGSFGHVYLGFNSESGEMCAMKEVTLCSDDPKSRESAQQLGQEISVLSRLRHQNIVQYYGSETVDDKLYIYLEYVSGGSIYKLLQEYGQFGENAIRNYTQQILSGLAYLHAKNTVHRDIKGANILVDPHGRVKVADFGMAKHITAQSGPLSFKGSPYWMAPEVIKNSNGSNLAVDIWSLGCTVLEMATTKPPWSQYEGVPAMFKIGNSKELPDIPDHLSEEGKDFVRKCLQRNPANRPTAAQLLDHAFVRNVMPMERPIVSGEPAEAMNVASSTMRSLDIGHARSLPCLDSEDATNYQQKGLKHGSGFSISQSPRNMSCPISPVGSPIFHSHSPHISGRRSPSPISSPHALSGSSTPLTGCGGAIPFHHQRQTTVNFLHEGIGSSRSPGSGGNFYTNSFFQEPSRQQDRSRSSPRTPPHVFWDNNGSIQPGYNWNKDNQPVLSDHVSQQLLSEHLKLKSLDLRPGFSTPGSTNRGP
Regarding B1, in test [4], the binding entry was “binds”.

B2: auxin efflux transporter PIN7 (protein, UniProt Q940Y5 1-619)
chain: MITWHDLYTVLTAVIPLYVAMILAYGSVRWWKIFSPDQCSGINRFVAIFAVPLLSFHFISSNNPYAMNLRFIAADTLQKLIMLTLLIIWANFTRSGSLEWSITIFSLSTLPNTLVMGIPLLIAMYGEYSGSLMVQIVVLQCIIWYTLLLFLFEYRGAKILIMEQFPETGASIVSFKVESDVVSLDGHDFLETDAQIGDDGKLHVTVRKSNASRRSFYGGGGTNMTPRPSNLTGAEIYSLNTTPRGSNFNHSDFYSMMGFPGGRLSNFGPADMYSVQSSRGPTPRPSNFEESCAMASSPRFGYYPGGAPGSYPAPNPEFSTGNKTGSKAPKENHHHVGKSNSNDAKELHMFVWGSNGSPVSDRAGLQVDNGANEQVGKSDQGGAKEIRMLISDHTQNGENKAGPMNGDYGGEEESERVKEVPNGLHKLRCNSTAELNPKEAIETGETVPVKHMPPASVMTRLILIMVWRKLIRNPNTYSSLIGLIWALVAFRWDVAMPKIIQQSISILSDAGLGMAMFSLGLFMALQPKLIACGNSTATFAMAVRFFTGPAVMAVAAMAIGLRGDLLRVAIVQAALPQGIVPFVFAKEYNVHPAILSTGVIFGMLIALPITLVYYILLGL
In the case of B2, the binding entry in test [5] and in test [6] was “binds” each time.

B3: auxin efflux transporter PIN3 (protein, UniProt Q9S7Z8 1-640)
chain: MISWHDLYTVLTAVIPLYVAMILAYGSVRWWKIFSPDQCSGINRFVAIFAVPLLSFHFISTNNPYAMNLRFIAADTLQKIIMLSLLVLWANFTRSGSLEWSITIFSLSTLPNTLVMGIPLLIAMYGEYSGSLMVQIVVLQCIIWYTLLLFLFEFRGAKMLIMEQFPETAASIVSFKVESDVVSLDGHDFLETDAEIGDDGKLHVTVRKSNASRRSFCGPNMTPRPSNLTGAEIYSLSTTPRGSNFNHSDFYNMMGFPGGRLSNFGPADMYSVQSSRGPTPRPSNFEENCAMASSPRFGYYPGGGAGSYPAPNPEFSSTTTSTANKSVNKNPKDVNTNQQTTLPTGGKSNSHDAKELHMFVWSSNGSPVSDRAGLNVFGGAPDNDQGGRSDQGAKEIRMLVPDQSHNGETKAVAHPASGDFGGEQQFSFAGKEEEAERPKDAENGLNKLAPNSTAALQSKTGLGGAEASQRKNMPPASVMTRLILIMVWRKLIRNPNTYSSLIGLIWALVAFRWHVAMPKIIQQSISILSDAGLGMAMFSLGLFMALQPKLIACGNSVATFAMAVRFLTGPAVMAVAAIAIGLRGDLLRVAIVQAALPQGIVPFVFAKEYNVHPAILSTGVIFGMLIALPITLVYYILLGL
As for B3, the binding entry in test [5] and in test [6] was “binds” in each case.

B4: BRI1-ASSOCIATED KINASE1/SOMATIC EMBRYOGENESIS RECEPTOR KINASE3 (BAK1/SERK3) (receptor, UniProt Q94F62 26-615)
chain: NAEGDALSALKNSLADPNKVLQSWDATLVTPCTWFHVTCNSDNSVTRVDLGNANLSGQLVMQLGQLPNLQYLELYSNNITGTIPEQLGNLTELVSLDLYLNNLSGPIPSTLGRLKKLRFLRLNNNSLSGEIPRSLTAVLTLQVLDLSNNPLTGDIPVNGSFSLFTPISFANTKLTPLPASPPPPISPTPPSPAGSNRITGAIAGGVAAGAALLFAVPAIALAWWRRKKPQDHFFDVPAEEDPEVHLGQLKRFSLRELQVASDNFSNKNILGRGGFGKVYKGRLADGTLVAVKRLKEERTQGGELQFQTEVEMISMAVHRNLLRLRGFCMTPTERLLVYPYMANGSVASCLRERPESQPPLDWPKRQRIALGSARGLAYLHDHCDPKIIHRDVKAANILLDEEFEAVVGDFGLAKLMDYKDTHVTTAVRGTIGHIAPEYLSTGKSSEKTDVFGYGVMLLELITGQRAFDLARLANDDDVMLLDWVKGLLKEKKLEALVDVDLQGNYKDEEVEQLIQVALLCTQSSPMERPKMSEVVRMLEGDGLAERWEEWQKEEMFRQDFNYPTHHPAVSGWIIGDSTSQIENEYPSGPR
Take B4: the binding entry in test [4] was “binds”.

B5: TOO MANY MOUTHS (TMM) (receptor, UniProt Q9SSD1 24-496)
chain: FTVITSDSTAPSALIDGPQTGFTMTNDGARTEPDEQDAVYDIMRATGNDWAAAIPDVCRGRWHGIECMPDQDNVYHVVSLSFGALSDDTAFPTCDPQRSYVSESLTRLKHLKALFFYRCLGRAPQRIPAFLGRLGSSLQTLVLRENGFLGPIPDELGNLTNLKVLDLHKNHLNGSIPLSFNRFSGLRSLDLSGNRLTGSIPGFVLPALSVLDLNQNLLTGPVPPTLTSCGSLIKIDLSRNRVTGPIPESINRLNQLVLLDLSYNRLSGPFPSSLQGLNSLQALMLKGNTKFSTTIPENAFKGLKNLMILVLSNTNIQGSIPKSLTRLNSLRVLHLEGNNLTGEIPLEFRDVKHLSELRLNDNSLTGPVPFERDTVWRMRRKLRLYNNAGLCVNRDSDLDDAFGSKSGSTVRLCDAETSRPAPSGTVQHLSREEDGALPDGATDVSSTSKSLGFSYLSAFFLVFPNFIFMLISS
With B5, in test [6], the binding result was “binds”.

The record behind these values is paper PMC13015889.
